{"sequences": {"note": "Protein sequences, listed by entry. Tags and fused reporters are not part of them.", "UniProt Q8WUY3": "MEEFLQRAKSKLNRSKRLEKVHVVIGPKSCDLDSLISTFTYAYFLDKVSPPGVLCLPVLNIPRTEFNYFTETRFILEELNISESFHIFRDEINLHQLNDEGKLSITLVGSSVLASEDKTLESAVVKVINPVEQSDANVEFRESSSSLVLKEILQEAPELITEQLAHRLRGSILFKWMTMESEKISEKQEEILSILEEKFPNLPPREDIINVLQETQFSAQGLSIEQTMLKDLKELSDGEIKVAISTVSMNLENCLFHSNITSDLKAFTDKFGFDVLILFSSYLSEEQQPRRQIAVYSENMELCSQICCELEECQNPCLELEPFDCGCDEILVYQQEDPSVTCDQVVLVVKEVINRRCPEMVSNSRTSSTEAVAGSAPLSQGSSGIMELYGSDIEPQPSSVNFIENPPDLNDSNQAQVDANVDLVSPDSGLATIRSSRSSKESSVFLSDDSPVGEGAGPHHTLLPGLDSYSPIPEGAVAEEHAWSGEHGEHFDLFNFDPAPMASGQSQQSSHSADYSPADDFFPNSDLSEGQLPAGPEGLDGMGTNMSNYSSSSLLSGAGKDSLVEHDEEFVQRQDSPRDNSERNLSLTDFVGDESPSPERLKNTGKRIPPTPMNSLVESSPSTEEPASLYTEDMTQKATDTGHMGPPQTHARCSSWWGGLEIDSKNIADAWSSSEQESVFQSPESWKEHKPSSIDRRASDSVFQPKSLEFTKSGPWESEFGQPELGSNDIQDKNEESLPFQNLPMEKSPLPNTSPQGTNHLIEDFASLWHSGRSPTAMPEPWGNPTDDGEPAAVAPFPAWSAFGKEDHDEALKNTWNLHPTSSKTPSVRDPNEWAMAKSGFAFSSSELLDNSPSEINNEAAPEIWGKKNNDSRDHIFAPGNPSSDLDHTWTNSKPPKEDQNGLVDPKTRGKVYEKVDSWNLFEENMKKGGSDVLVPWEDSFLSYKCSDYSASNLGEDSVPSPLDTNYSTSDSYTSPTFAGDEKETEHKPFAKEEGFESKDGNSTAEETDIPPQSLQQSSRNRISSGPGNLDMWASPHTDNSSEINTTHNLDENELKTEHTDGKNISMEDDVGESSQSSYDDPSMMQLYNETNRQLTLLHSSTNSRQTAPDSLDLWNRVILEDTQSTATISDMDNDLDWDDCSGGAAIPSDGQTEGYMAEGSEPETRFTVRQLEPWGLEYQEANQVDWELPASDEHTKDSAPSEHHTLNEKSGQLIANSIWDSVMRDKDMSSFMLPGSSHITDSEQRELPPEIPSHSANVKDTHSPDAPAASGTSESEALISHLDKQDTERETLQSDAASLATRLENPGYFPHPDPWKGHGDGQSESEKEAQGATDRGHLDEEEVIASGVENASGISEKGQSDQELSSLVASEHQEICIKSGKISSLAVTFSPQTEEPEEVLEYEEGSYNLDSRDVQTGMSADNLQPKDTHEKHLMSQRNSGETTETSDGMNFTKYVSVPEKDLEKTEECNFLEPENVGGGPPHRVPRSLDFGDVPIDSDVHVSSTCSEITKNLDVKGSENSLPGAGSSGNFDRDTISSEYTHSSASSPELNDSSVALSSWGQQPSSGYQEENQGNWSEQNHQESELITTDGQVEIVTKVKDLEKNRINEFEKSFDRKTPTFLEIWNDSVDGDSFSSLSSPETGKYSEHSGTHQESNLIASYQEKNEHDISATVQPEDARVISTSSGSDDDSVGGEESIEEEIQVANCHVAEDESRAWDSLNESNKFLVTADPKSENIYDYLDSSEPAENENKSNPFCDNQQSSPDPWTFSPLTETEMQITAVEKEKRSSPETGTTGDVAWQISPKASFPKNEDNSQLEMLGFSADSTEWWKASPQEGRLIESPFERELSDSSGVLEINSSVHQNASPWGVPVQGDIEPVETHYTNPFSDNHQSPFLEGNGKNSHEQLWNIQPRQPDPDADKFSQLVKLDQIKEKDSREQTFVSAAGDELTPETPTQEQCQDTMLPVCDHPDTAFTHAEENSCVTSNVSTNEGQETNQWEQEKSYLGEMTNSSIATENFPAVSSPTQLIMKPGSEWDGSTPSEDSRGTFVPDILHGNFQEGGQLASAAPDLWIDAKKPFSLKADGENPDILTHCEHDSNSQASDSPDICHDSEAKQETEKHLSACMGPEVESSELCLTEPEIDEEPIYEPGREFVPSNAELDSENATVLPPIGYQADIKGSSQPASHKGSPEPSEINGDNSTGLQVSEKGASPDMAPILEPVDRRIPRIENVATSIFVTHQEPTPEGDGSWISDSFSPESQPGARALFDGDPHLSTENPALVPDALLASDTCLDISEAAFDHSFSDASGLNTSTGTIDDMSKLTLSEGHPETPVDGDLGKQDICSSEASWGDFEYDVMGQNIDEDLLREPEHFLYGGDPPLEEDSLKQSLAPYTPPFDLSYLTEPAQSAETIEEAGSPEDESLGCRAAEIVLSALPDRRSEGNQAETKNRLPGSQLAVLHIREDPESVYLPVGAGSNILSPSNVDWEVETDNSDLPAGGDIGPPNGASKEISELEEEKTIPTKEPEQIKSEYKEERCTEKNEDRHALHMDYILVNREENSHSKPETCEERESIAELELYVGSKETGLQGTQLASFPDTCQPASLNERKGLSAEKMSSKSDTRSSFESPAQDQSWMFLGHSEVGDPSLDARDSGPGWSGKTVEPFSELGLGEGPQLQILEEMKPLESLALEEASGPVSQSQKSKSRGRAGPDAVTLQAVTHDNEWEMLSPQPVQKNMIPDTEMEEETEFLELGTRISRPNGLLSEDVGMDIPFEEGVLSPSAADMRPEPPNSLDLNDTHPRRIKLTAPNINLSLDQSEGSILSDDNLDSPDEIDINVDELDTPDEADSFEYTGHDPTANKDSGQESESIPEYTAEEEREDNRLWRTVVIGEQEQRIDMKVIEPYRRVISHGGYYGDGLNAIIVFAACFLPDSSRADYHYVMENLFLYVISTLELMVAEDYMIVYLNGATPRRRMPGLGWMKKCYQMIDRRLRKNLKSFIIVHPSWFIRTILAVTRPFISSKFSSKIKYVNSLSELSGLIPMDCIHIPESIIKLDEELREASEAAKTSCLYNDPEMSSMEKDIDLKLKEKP", "UniProt P63010": "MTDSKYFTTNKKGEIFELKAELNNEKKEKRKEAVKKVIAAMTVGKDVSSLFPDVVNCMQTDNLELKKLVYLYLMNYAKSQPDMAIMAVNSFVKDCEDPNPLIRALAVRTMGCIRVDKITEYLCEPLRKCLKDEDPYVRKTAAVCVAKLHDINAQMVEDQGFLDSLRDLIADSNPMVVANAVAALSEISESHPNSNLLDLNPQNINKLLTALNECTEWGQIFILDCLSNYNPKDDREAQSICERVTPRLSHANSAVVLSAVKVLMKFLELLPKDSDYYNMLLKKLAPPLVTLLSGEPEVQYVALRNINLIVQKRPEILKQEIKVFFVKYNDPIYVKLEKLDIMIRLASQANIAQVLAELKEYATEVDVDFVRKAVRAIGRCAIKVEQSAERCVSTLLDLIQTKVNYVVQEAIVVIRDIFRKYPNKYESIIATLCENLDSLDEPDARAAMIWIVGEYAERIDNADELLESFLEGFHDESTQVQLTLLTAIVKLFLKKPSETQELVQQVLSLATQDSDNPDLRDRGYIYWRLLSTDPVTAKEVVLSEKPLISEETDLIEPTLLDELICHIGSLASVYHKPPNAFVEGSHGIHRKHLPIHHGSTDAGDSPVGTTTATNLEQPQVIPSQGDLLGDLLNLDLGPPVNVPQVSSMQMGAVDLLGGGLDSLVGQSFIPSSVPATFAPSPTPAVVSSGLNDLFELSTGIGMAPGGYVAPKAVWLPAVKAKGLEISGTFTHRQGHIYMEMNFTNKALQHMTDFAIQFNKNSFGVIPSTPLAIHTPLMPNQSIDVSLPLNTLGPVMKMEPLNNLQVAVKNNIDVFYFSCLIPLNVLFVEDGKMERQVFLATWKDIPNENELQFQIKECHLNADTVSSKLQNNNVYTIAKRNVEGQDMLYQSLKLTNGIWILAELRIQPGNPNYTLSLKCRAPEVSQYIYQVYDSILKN"}, "source": "paper PMC3765211", "biological_target": "BMCC1-1 protein (340 kDa BMCC1) (human (endogenous in LNCaP)) (UniProt Q8WUY3)", "assay": "co-IP; endogenous BMCC1 immunoprecipitated with sheep anti-BMCC1 Ab-4 from LNCaP total lysate overnight, protein G agarose; blots for β-adaptin and AP2A1/2; also from cells transfected with control siRNA or BMCC1 siRNA", "note": "No constants are given. Whether binding was seen depends on the method and setting. Binding seen in cells or lysates may run through a third protein. Some entries that bind do so weakly or less than the wild type."}
{"substance": "AP-2B1/β-adaptin (from UniProt P63010 1-937)", "values": [{"measurement": "binding", "result": "binds"}]}
